Only a part is listed here, and it is no random draw. At the low end of the ranking the order means little.

The text below walks through data of paper PMC7862700.

The assay concerns the target SPI1 (UniProt P17947). The assay is described as follows: DAPPL (digital affinity profiling via proximity ligation, sequencing). As to conditions: 10 mM Tris-HCl pH 7.5, 50 mM NaCl, 1 mM DTT, 4% glycerol, room temperature, 30 min; GST-TFs on glutathione beads, 16-mer random dsDNA library, 0.1% …; high values mean tight binding; double strand, one strand shown; scale: fold enrichment (6-mer frequency, TF over GST control).
With GGATGA, the binding signal stood at 0.99. The same measure for CCGGAG: 0.498.

Regarding CAGGGC, the binding signal worked out at 0.733. On to GGTAGC, for which the binding signal stood at 0.735.

The sequence AGCCGT gave a binding signal of 0.423. The same measure for GGTGTC: 0.674. The same measure for TCAGGT: 0.865. The same measure for CAGTCG: 0.156; for GTCGCG: 0.694. In turn, GCATGG had a binding signal of 0.832.

On to TCGTGG, for which the binding signal amounted to 0.702.

Regarding GCACAG, the binding signal came to 0.776. Under CGGTCA stands 0.743; under CGGGTC, 0.706. The same measure for CATGTG: 0.8; for TGAAGT: 0.829; for CGAGGC: 0.664. The same measure for ACGGCG: 0.831; for CGAGTC: 0.504; for GGGAGC: 0.384. On to GGAGCC, for which the binding signal is 0.342. Under AGGCCA stands 0.676. Under AGGGGT stands 0.825; under CGTGAT, 0.439; under CGGAGC, 0.386.

The sequence AGAGTA gave a binding signal of 0.741. Under CCCGGG stands 0.789; under ACGAGA, 0.622. Under TCGCCA stands 0.969; under GGTAGT, 0.733. Sequence CATAGG had a binding signal of 0.752. Under TTGAGT stands 0.648; under TCAGAA, 0.943; under CGCGGT, 0.859.

GGCAGA returned a binding signal of 0.625.

The sequence AGAGCG showed a binding signal of 0.437. TCGGAT gave a binding signal of 0.526. The same measure for CGGGAT: 0.612; for GCTGAG: 0.674.
